The nature of the assay: IkB Signaling. As to conditions: ABC-DLBCL IkBa-CBG/CBR dual luciferase ratio (green luciferase fused to IkBa over red control in OCI-Ly3 lymphoma cells), 4 h. In a few lines: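 In this assay, an IκBα–CBG68 fusion accumulates when IKK-driven degradation is blocked; native CBR normalizes for cell number. OCI-Ly3 cells were treated 4 h with compound and doxycycline, then green and red light read after Chroma-Glo addition.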
[1] abbreviates: measured here: control luc red channel unless noted.
Setting [2] is: measured here: IkB-luc green channel.
The mark [3] stands for this setting: measured here: control luc red channel.

Each structure is given as a SMILES string. This is one part of the list. These are further read-outs of the screen, such as a control signal, another cell line or another target. No call is given for them. The list favours compounds with an active or inconclusive main result. Words in brackets tell the shape of the fitted curve; partial curves, single points and poor fits give uncertain potencies.

The term AC50 denotes the midpoint of the concentration-response curve, whichever way the signal moves.

With `Cc1noc(C)c1C(=O)Nc1sc(C)c(-c2ccccc2)c1C#N`, the AC50 under setting [1] was 2.51 µM [falling, full curve].

On to `CCCSCCCNC(=O)C1CCN(C(=O)c2cc3sccc3n2C)CC1`, for which the AC50 under setting [1] was 25.1 µM [falling, single point].

`Cc1nnc(N2CCC(C(=O)NC(C)C)CC2)c2nn(-c3ccc(Cl)cc3)c(C)c12`: the AC50 under setting [1] is 39.8 µM [falling, single point].

Take `CC(C)(C)C(=O)C1C(=O)c2ccccc2C1=O`: the AC50 under setting [1] was 15.8 µM [falling, full curve, poor fit].

On to `CSc1nc2sc3c(c2c(=O)n1C)CCCC3`, for which the AC50 under setting [1] was 1.58 µM [rising, full curve].

For `Cc1ccc(NC(=O)CSc2nc3ccc(NC(=O)c4cccs4)cc3s2)c(C)c1`, the AC50 under setting [1] is 5.01 µM [falling, full curve].

As for `COc1cccc(Cn2c(=O)n(-c3cccc(Cl)c3C)c(=O)c3c4c(sc32)CN(C(C)=O)CC4)c1`, the AC50 under setting [1] is 39.8 µM [falling, single point].

Regarding `CCc1cnc2c(c1SCC(=O)Nc1ccc(Cl)cc1)c(=O)n(C)c(=O)n2C`, the AC50 under setting [1] was 3.98 µM [rising, single point] [measured here: IkB-luc green channel].

As to `COc1ccccc1CNC(=O)Cn1c(=O)oc2cc(S(=O)(=O)N3CCC(C)CC3)ccc21`, under setting [1], the AC50 is 15.8 µM [falling, partial curve].

Turning to `COc1cccc(CNCCSc2nnnn2C)c1OCc1ccc(Cl)cc1Cl`, the AC50 under setting [1] is 25.1 µM [falling, partial curve].

With `COc1ccc(C2c3cccn3CCN2S(=O)(=O)c2ccccc2[N+](=O)[O-])cc1OC` (stereo unspecified), the AC50 under setting [1] was 0.316 µM [rising, full curve].

`O=C(NCC(c1ccc2c(c1)OCO2)N1CCOCC1)c1ccccc1F` (stereo unspecified): under setting [1], the AC50 was 6.31 µM [rising, partial curve].

`Cc1cccn2cc(-c3cccc(NS(=O)(=O)c4ccc(Cl)c(Cl)c4)c3)nc12`: under setting [1], the AC50 is 20 µM [falling, partial curve].

For the molecule `CCc1ccc(CNC(=O)CCc2c(C)nn(-c3ccc(N4CCCCC4)nn3)c2C)cc1`, the AC50 under setting [1] was 15.8 µM [falling, partial curve].

Turning to `CCc1ccc2occ(CC(=O)Nc3c(C(=O)Nc4ccc(OC)cc4)oc4ccccc34)c2c1`, the AC50 under setting [1] is 12.6 µM [falling, single point].

For `CC(CNC(=O)Cn1ccc2cc(S(=O)(=O)N3CCCCC3)ccc21)c1ccccc1` (stereo unspecified), the AC50 under setting [1] is 12.6 µM [falling, partial curve].

Turning to `CCS(=O)(=O)N1CCc2cc(C(=O)Nc3ccc(C)c(Cl)c3)ccc21`, the AC50 under setting [1] is 39.8 µM [falling, single point].

For the molecule `CCCCOc1ccc(C(=O)NCC2(N3CCN(C)CC3)CCCCC2)cc1`, under setting [1], the AC50 is 25.1 µM [falling, partial curve].

For the molecule `CCOC(=O)C1CCN(c2nc(-c3ccc(Br)cc3)nc3ccccc23)CC1`, the AC50 under setting [1] was 2.51 µM [falling, partial curve].

Consider `Fc1ccc(-c2nnc3ccc(N4CCc5ccccc5C4)nn23)cc1`, for which the AC50 under setting [2] was 31.6 µM [falling, single point] and the AC50 under setting [3] is 39.8 µM [falling, single point].

Take `O=C(CSc1nnc(-c2ccccc2O)o1)N1CCc2ccccc2C1`: under setting [1], the AC50 was 20 µM [falling, partial curve].

With `Oc1ccc(-c2nc3ncccn3c2Nc2ccc3c(c2)OCCO3)cc1`, under setting [1], the half-maximal activity concentration (AC50) is 10 µM [falling, partial curve].

Consider `COc1cccc(CNC(=O)C2Cc3cc(S(=O)(=O)N4CCCCCC4)ccc3N2C(C)=O)c1` (stereo unspecified), for which the AC50 under setting [1] is 3.16 µM [rising, single point].

As for `Cc1c(C(=O)N(C)C)sc2c1c(=O)n(-c1ccc(F)cc1)c(=O)n2Cc1cc(=O)n2ccccc2n1`, the AC50 under setting [1] was 10 µM [rising, partial curve, poor fit].

On to `CCC(=O)N1CCc2cc(Br)cc(S(=O)(=O)N3CCCC(C(=O)NCc4cccc(OC)c4)C3)c21` (stereo unspecified), for which the AC50 under setting [1] was 7.94 µM [falling, full curve].

In the case of `Cc1nc2c(-c3ccccc3)c(C)nn2c(C)c1CCC(=O)N1CCN(c2ccccc2)CC1`, the AC50 under setting [1] is 10 µM [falling, partial curve].

On to `CC(=O)N1CCCc2ccc(NS(=O)(=O)c3ccc(C)c(C)c3)cc21`, for which the AC50 under setting [1] was 12.6 µM [falling, partial curve].

Regarding `Cn1nc(C(=O)N2CCN(c3cccc(Cl)c3)CC2)c2c1-c1ccccc1S(=O)(=O)C2`, the AC50 under setting [1] was 10 µM [falling, partial curve].

On to `CCCCCn1c(NCc2ccccc2OC)nc2ccccc21`, for which the AC50 under setting [1] is 25.1 µM [falling, single point].

As for `CCCS(=O)(=O)c1ncc(Cl)c(C(=O)Nc2c(C(=O)c3ccccc3)oc3ccccc23)n1`, the AC50 under setting [1] was 20 µM [falling, single point].

For the molecule `Cc1cccc(-c2cc3nc4c(c(N5CCC6(CC5)OCCO6)n3n2)CCCC4)c1`, under setting [1], the AC50 was 12.6 µM [falling, partial curve].

As to `Cc1ccc(CCNC(=O)CCn2c(=O)c3cccn3c3ccc(F)cc32)cc1`, the AC50 under setting [1] is 12.6 µM [falling, partial curve].

For the molecule `Fc1cccc(F)c1-c1nc(-c2ccncc2)no1`, the concentration at half-maximal activity (AC50) runs as follows: under setting [2], 6.31 µM [rising, single point]; under setting [3], 7.94 µM [rising, partial curve].

Regarding `CCCN1C[C@H](CSC)C[C@H]2c3cccc4[nH]cc(c34)C[C@@H]21`, the AC50 under setting [1] was 0.316 µM [rising, single point].

`Cc1cc(=O)n2nc(N3CCC(C(=O)Nc4ccc(C(C)C)cc4)CC3)sc2n1`: the AC50 under setting [1] was 10 µM [falling, partial curve].

Consider `Cc1nnc(Sc2nc(Sc3nnc(C)s3)nc(N3CCN(C)CC3)n2)s1`, for which the AC50 runs as follows: under setting [2], 3.16 µM [rising, full curve]; under setting [3], 12.6 µM [falling, partial curve].

For `COc1cccc(CNC(=O)CCS(=O)(=O)c2cc3c(cc2C)NC(=O)CO3)c1`, the AC50 under setting [1] is 15.8 µM [falling, partial curve].

With `CN(C)c1ccc(CNC(=O)CCCN2C(=O)CCn3nc(-c4cccn4C)cc32)cc1`, the AC50 under setting [1] is 15.8 µM [falling, partial curve].

For the molecule `COc1cc(-c2nc3sccn3c2Nc2cccc(C)c2)ccc1O`, under setting [1], the AC50 was 25.1 µM [falling, single point].

Turning to `Oc1ccccc1-c1nc(/C=C/c2ccccc2Cl)no1`, the AC50 under setting [1] is 0.0398 µM [falling, full curve].

`COc1ccccc1OCCCn1c(C2CC(=O)N(c3ccccc3Cl)C2)nc2ccccc21` (stereo unspecified): the AC50 under setting [1] was 15.8 µM [falling, partial curve].

On to `COc1ccccc1C(=O)N1CCN(c2cccc(Cl)c2)CC1`, for which the AC50 under setting [1] was 3.16 µM [rising, partial curve].

Consider `COc1ccc(N2C(=O)CCSC23C(=O)N(Cc2ccc(F)cc2)c2ccccc23)cc1Cl` (stereo unspecified), for which the AC50 under setting [1] was 25.1 µM [falling, single point].

On to `CCc1ccccc1NC(=O)Cn1c(=O)ccc2cc(S(=O)(=O)N3CCC(C)CC3)ccc21`, for which the AC50 under setting [1] was 31.6 µM [falling, partial curve].

Turning to `Cc1cccc(N2CCN(S(=O)(=O)c3c(C)nc4scc(C)n4c3=O)CC2C)c1` (stereo unspecified), the AC50 under setting [1] is 20 µM [falling, partial curve].

Regarding `CC1CCN(C(=O)c2ccc(NC(=O)c3nsc4ccccc34)cc2)CC1`, the half-maximal activity concentration (AC50) under setting [1] is 0.398 µM [falling, full curve].

For the molecule `CCOC(=O)c1sc(NC(=O)c2nc3nc(C)cc(C(F)F)n3n2)c(C(=O)OC)c1C`, the AC50 under setting [1] is 5.01 µM [falling, partial curve].

Regarding `Cn1nc(C(=O)Nc2ccccc2C#N)c2c1-c1ccccc1SC2`, the AC50 under setting [1] was 39.8 µM [falling, single point].

For the molecule `C[C@@H]1C[C@@H]2[C@H]3CCC4=CC(=O)C=C[C@]4(C)[C@]3(F)[C@@H](O)C[C@@]2(C)[C@@]1(O)C(=O)CO`, the AC50 is, setting by setting: under setting [2], 0.00398 µM [rising, full curve]; under setting [3], 0.000794 µM [rising, full curve, poor fit].

As for `COc1cccc(-c2cc(C(=O)Nc3cccnc3Cl)no2)c1`, under setting [1], the concentration at half-maximal activity (AC50) is 20 µM [falling, partial curve].

`COc1ccc(-c2nc3ccc(C(=O)NCc4ccc(C)cc4)cc3nc2-c2ccc(OC)cc2)cc1`: the AC50 under setting [1] was 5.01 µM [falling, full curve, poor fit].

`COc1ccc(Cl)cc1-n1c(CCC(=O)O)ccc1-c1ccc(C)cc1`: under setting [1], the AC50 was 15.8 µM [falling, partial curve].

Take `COc1ccc(Br)cc1CNC(=O)CCSCc1ccc(Cl)cc1`: the AC50 under setting [1] is 25.1 µM [falling, single point].

Take `Cc1ccc(OCCn2c(COc3ccc(Cl)cc3)nc3ccccc32)cc1`: under setting [1], the AC50 is 1.58 µM [falling, partial curve].

On to `COc1ccc(-c2noc(-c3ccccc3C(=O)NCc3ccco3)n2)cc1OC`, for which the AC50 under setting [1] is 10 µM [falling, partial curve].

As to `c1ccc(Cn2nnnc2C(c2cccs2)N2CCc3ccccc3C2)cc1` (stereo unspecified), the AC50 under setting [1] was 20 µM [falling, partial curve].

As to `CC(C)Cn1c(SCc2cccc(F)c2)nc2ccsc2c1=O`, the AC50 under setting [1] is 39.8 µM [falling, single point].

Turning to `CCOc1ccc(CNC(=O)c2cccc(Nc3nc4ccccc4n4nnnc34)c2)cc1OC`, the AC50 was 25.1 µM [rising, single point] under setting [2] and 3.16 µM [falling, partial curve] under setting [3].

As to `CSc1nc(N)nc(SCC(=O)c2ccccc2)c1C#N`, under setting [1], the AC50 is 12.6 µM [falling, partial curve].

For `CC(=O)c1cc2c(cc1N/C(=N/S(=O)(=O)c1ccc(C)cc1)c1ccc(Cl)cc1)OCO2`, the AC50 under setting [1] was 0.794 µM [rising, full curve].

Regarding `COc1ccc(-c2cn3c(n2)sc2cc(C(=O)NCc4ccccc4)ccc23)cc1`, the AC50 under setting [1] is 31.6 µM [falling, single point].

The values are drawn from PubChem BioAssay AID445 (National Center for Advancing Translational Sciences (NCATS), 2006).
